Consider 1 substance from publication PMC4742622.

Sequences of proteins named here, by UniProt entry; tags and fusion partners are left off. A change or cut given only in a name is not applied to a line headed by its entry.
UniProt P40763: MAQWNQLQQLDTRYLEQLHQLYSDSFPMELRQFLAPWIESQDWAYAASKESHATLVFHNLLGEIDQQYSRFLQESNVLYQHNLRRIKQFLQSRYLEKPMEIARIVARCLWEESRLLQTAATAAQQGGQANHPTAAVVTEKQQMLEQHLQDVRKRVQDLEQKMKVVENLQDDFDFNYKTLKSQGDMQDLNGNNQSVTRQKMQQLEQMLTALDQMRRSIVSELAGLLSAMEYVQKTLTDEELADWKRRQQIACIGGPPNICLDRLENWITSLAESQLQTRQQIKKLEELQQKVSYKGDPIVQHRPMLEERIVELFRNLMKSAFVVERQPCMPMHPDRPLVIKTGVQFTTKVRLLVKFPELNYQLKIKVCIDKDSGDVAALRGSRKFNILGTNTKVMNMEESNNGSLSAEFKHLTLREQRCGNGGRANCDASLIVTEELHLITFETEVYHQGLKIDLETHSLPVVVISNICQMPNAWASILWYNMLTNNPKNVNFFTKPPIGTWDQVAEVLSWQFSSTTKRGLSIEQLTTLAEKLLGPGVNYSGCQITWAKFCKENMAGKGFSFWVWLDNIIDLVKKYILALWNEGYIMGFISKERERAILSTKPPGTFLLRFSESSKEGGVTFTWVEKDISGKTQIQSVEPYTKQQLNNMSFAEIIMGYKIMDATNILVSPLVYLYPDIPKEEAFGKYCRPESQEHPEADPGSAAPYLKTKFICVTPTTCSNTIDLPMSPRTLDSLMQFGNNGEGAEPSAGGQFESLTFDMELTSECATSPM
UniProt Q01196: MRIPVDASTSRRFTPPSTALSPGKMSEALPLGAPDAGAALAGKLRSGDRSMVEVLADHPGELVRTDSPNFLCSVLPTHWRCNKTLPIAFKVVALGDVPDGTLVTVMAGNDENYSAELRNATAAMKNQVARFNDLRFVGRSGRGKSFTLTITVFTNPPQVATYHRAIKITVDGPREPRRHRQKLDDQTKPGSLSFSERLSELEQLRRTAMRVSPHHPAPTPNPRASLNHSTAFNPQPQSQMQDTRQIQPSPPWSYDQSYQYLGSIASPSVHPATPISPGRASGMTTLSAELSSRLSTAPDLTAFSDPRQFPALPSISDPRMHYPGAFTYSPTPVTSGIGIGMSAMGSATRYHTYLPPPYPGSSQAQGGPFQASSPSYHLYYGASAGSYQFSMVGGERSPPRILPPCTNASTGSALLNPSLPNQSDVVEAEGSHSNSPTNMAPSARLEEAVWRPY

The target in this assay is GFP-tagged FLAGHA-STAT3 (UniProt P40763). Kind of assay: co-IP; GFP beads on lysates of cells overexpressing the constructs ('GFP-pulldown assay'), western blot; HEK293T stated for Figure 5a and 5b, cells not stated for 5e, 5f, 5h.

These are yes or no findings as the source states them, for the method shown. In cells and extracts the contact can be indirect.

As for “RUNX1 with deleted Runt domain (RUNX1^ΔRD) (from UniProt Q01196)”, the binding result is on record as “no binding”.
